# Some of the results follow.
# Legend:
# Assay in all cases: glycan array binding signal (z-score within array); higher = stronger binding
# Settings in all cases: glycan notation: IUPAC condensed, linker removed
# [1] = target: Neu5Ac(a2-6)Gal(b1-4)GlcNAc(b1-2)Man
# Procedure, shortened: (§1)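 Negative Z-scores can be read as non-binding. The Z-score is calculated within each array and then averaged across arrays of one protein sequence at different concentrations or buffers and across linkers. Arrays, 3228 in all, were curated from the Consortium for Functional Glycomics database and kept only where the protein sequence was available.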
# [2] = target: Neu5Ac(a2-6)Gal(b1-4)GlcNAc(b1-2)Man(a1-3)Man(b1-4)GlcNAc(b1-4)GlcNAc
# Procedure, shortened: as §1
# [3] = target: Neu5Ac(a2-6)Gal(b1-4)GlcNAc(b1-2)Man(a1-3)[Gal(b1-4)GlcNAc(b1-2)Man(a1-6)]Man(b1-4)GlcNAc(b1-4)GlcNAc
# Procedure, shortened: as §1
# [4] = target: Neu5Ac(a2-6)Gal(b1-4)GlcNAc(b1-2)Man(a1-3)[GlcNAc(b1-2)Man(a1-6)]Man(b1-4)GlcNAc(b1-4)GlcNAc
# Procedure, shortened: as §1
# [5] = target: Neu5Ac(a2-6)Gal(b1-4)GlcNAc(b1-2)Man(a1-3)[GlcNAc(b1-4)][Neu5Ac(a2-6)Gal(b1-4)GlcNAc(b1-2)Man(a1-6)]Man(b1-4)GlcNAc(b1-4)GlcNAc
# Procedure, shortened: as §1
# [6] = target: Neu5Ac(a2-6)Gal(b1-4)GlcNAc(b1-2)Man(a1-3)[Man(a1-6)]Man(b1-4)GlcNAc(b1-4)GlcNAc
# Procedure, shortened: as §1
# [7] = target: Neu5Ac(a2-6)Gal(b1-4)GlcNAc(b1-2)Man(a1-3)[Neu5Ac(a2-3)Gal(b1-4)GlcNAc(b1-2)Man(a1-6)]Man(b1-4)GlcNAc(b1-4)GlcNAc
# Procedure, shortened: as §1
# [8] = target: Neu5Ac(a2-6)Gal(b1-4)GlcNAc(b1-2)Man(a1-3)[Neu5Ac(a2-6)Gal(b1-4)GlcNAc(b1-2)Man(a1-6)]Man(b1-4)GlcNAc(b1-4)GlcNAc
# Procedure, shortened: as §1
# [9] = target: Neu5Ac(a2-6)Gal(b1-4)GlcNAc(b1-2)Man(a1-3)[Neu5Ac(a2-6)Gal(b1-4)GlcNAc(b1-2)Man(a1-6)]Man(b1-4)GlcNAc(b1-4)[Fuc(a1-6)]GlcNAc
# Procedure, shortened: as §1
# [10] = target: Neu5Ac(a2-6)Gal(b1-4)GlcNAc(b1-2)Man(a1-6)Man(b1-4)GlcNAc(b1-4)GlcNAc
# Procedure, shortened: as §1
# [11] = target: Neu5Ac(a2-6)Gal(b1-4)GlcNAc(b1-2)Man(a1-6)[Gal(b1-4)GlcNAc(b1-2)Man(a1-3)]Man(b1-4)GlcNAc(b1-4)GlcNAc
# Procedure, shortened: as §1
# [12] = target: Neu5Ac(a2-6)Gal(b1-4)GlcNAc(b1-2)Man(a1-6)[GlcNAc(b1-2)Man(a1-3)]Man(b1-4)GlcNAc(b1-4)GlcNAc
# Procedure, shortened: as §1
# [13] = target: Neu5Ac(a2-6)Gal(b1-4)GlcNAc(b1-2)Man(a1-6)[Man(a1-3)]Man(b1-4)GlcNAc(b1-4)GlcNAc
# Procedure, shortened: as §1
# [14] = target: Neu5Ac(a2-6)Gal(b1-4)GlcNAc(b1-2)[Neu5Ac(a2-6)Gal(b1-4)GlcNAc(b1-4)]Man(a1-3)[GlcNAc(b1-4)][Neu5Ac(a2-6)Gal(b1-4)GlcNAc(b1-2)[Neu5Ac(a2-6)Gal(b1-4)GlcNAc(b1-6)]Man(a1-6)]Man(b1-4)GlcNAc(b1-4)GlcNAc
# Procedure, shortened: as §1
# [15] = target: Neu5Ac(a2-6)Gal(b1-4)GlcNAc(b1-2)[Neu5Ac(a2-6)Gal(b1-4)GlcNAc(b1-4)]Man(a1-3)[GlcNAc(b1-4)][Neu5Ac(a2-6)Gal(b1-4)GlcNAc(b1-4)Man(a1-6)]Man(b1-4)GlcNAc(b1-4)GlcNAc
# Procedure, shortened: as §1
# [16] = target: Neu5Ac(a2-6)Gal(b1-4)GlcNAc(b1-2)[Neu5Ac(a2-6)Gal(b1-4)GlcNAc(b1-6)]Man(a1-6)[Neu5Ac(a2-6)Gal(b1-4)GlcNAc(b1-2)Man(a1-3)][GlcNAc(b1-4)]Man(b1-4)GlcNAc(b1-4)GlcNAc
# Procedure, shortened: as §1
# [17] = target: Neu5Ac(a2-6)Gal(b1-4)GlcNAc(b1-3)Gal(b1-3)GlcNAc
# Procedure, shortened: as §1
# [18] = target: Neu5Ac(a2-6)Gal(b1-4)GlcNAc(b1-3)Gal(b1-4)GlcNAc
# Procedure, shortened: as §1
# [19] = target: Neu5Ac(a2-6)Gal(b1-4)GlcNAc(b1-3)Gal(b1-4)GlcNAc(b1-2)Man(a1-3)[Neu5Ac(a2-6)Gal(b1-4)GlcNAc(b1-3)Gal(b1-4)GlcNAc(b1-2)Man(a1-6)]GalNAc
# Procedure, shortened: as §1
# [20] = target: Neu5Ac(a2-6)Gal(b1-4)GlcNAc(b1-3)Gal(b1-4)GlcNAc(b1-3)Gal(b1-4)GlcNAc
# Procedure, shortened: as §1
# [21] = target: Neu5Ac(a2-6)Gal(b1-4)GlcNAc(b1-3)Gal(b1-4)GlcNAc(b1-3)Gal(b1-4)GlcNAc(b1-2)Man(a1-3)[Neu5Ac(a2-6)Gal(b1-4)GlcNAc(b1-3)Gal(b1-4)GlcNAc(b1-3)Gal(b1-4)GlcNAc(b1-2)Man(a1-6)]GalNAc
# Procedure, shortened: as §1
# [22] = target: Neu5Ac(a2-6)Gal(b1-4)GlcNAc(b1-3)Gal(b1-4)GlcNAc(b1-3)GalNAc
# Procedure, shortened: as §1
# [23] = target: Neu5Ac(a2-6)Gal(b1-4)GlcNAc(b1-3)Gal(b1-4)GlcNAc(b1-3)[Neu5Ac(a2-6)Gal(b1-4)GlcNAc(b1-3)Gal(b1-4)GlcNAc(b1-6)]GalNAc
# Procedure, shortened: as §1
binder,measurement,setting,value
"Endo180d1-D4 (Homo sapiens), Q9UBG0 (protein) MGPGRPAPAPWPRHLLRCVLLLGCLHLGRPGAPGDAALPEPNVFLIFSHGLQGCLEAQGGQVRVTPACNTSLPAQRWKWVSRNRLFNLGTMQCLGTGWPGTNTTASLGMYECDREALNLRWHCRTLGDQLSLLLGARTSNISKPGTLERGDQTRSGQWRIYGSEEDLCALPYHEVYTIQGNSHGKPCTIPFKYDNQWFHGCTSTGREDGHLWCATTQDYGKDERWGFCPIKSNDCETFWDKDQLTDSCYQFNFQSTLSWREAWASCEQQGADLLSITEIHEQTYINGLLTGYSSTLWIGLNDLDTSGGWQWSDNSPLKYLNWESDQPDNPSEENCGVIRTESSGGWQNRDCSIALPYVCKKKPNATAEPTPPDRWANVKVECEPSWQPFQGHCYRLQAEKRSWQESKKACLRGGGDLVSIHSMAELEFITKQIKQEVEELWIGLNDLKLQMNFEWSDGSLVSFTHWHPFEPNNFRDSLEDCVTIWGPEGRWNDSPCNQSLPSICKKAGQLSQGAAEEDHGCRKGWTWHSPSCYWLGEDQVTYSEARRLCTDHGSQLVTITNRFEQAFVSSLIYNWEGEYFWTALQDLNSTGSFFWLSGDEVMYTHWNRDQPGYSRGGCVALATGSAMGLWEVKNCTSFRARYICRQSLGTPVTPELPGPDPTPSLTGSCPQGWASDTKLRYCYKVFSSERLQDKKSWVQAQGACQELGAQLLSLASYEEEHFVANMLNKIFGESEPEIHEQHWFWIGLNRRDPRGGQSWRWSDGVGFSYHNFDRSRHDDDDIRGCAVLDLASLQWVAMQCDTQLDWICKIPRGTDVREPDDSPQGRREWLRFQEAEYKFFEHHSTWAQAQRICTWFQAELTSVHSQAELDFLSHNLQKFSRAQEQHWWIGLHTSESDGRFRWTDGSIINFISWAPGKPRPVGKDKKCVYMTASREDWGDQRCLTALPYICKRSNVTKETQPPDLPTTALGGCPSDWIQFLNKCFQVQGQEPQSRVKWSEAQFSCEQQEAQLVTITNPLEQAFITASLPNVTFDLWIGLHASQRDFQWVEQEPLMYANWAPGEPSGPSPAPSGNKPTSCAVVLHSPSAHFTGRWDDRSCTEETHGFICQKGTDPSLSPSPAALPPAPGTELSYLNGTFRLLQKPLRWHDALLLCESHNASLAYVPDPYTQAFLTQAARGLRTPLWIGLAGEEGSRRYSWVSEEPLNYVGWQDGEPQQPGGCTYVDVDGAWRTTSCDTKLQGAVCGVSSGPPPPRRISYHGSCPQGLADSAWIPFREHCYSFHMELLLGHKEARQRCQRAGGAVLSILDEMENVFVWEHLQSYEGQSRGAWLGMNFNPKGGTLVWQDNTAVNYSNWGPPGLGPSMLSHNSCYWIQSNSGLWRPGACTNITMGVVCKLPRAEQSSFSPSALPENPAALVVVLMAVLLLLALLTAALILYRRRQSIERGAFEGARYSRSSSSPTEATEKNILVSDMEMNEQQE",glycan array binding signal (z-score),[1],0.442
same,glycan array binding signal (z-score),[2],0.283
same,glycan array binding signal (z-score),[3],-0.686
same,glycan array binding signal (z-score),[4],3.38
same,glycan array binding signal (z-score),[5],-1.51
same,glycan array binding signal (z-score),[6],0.154
same,glycan array binding signal (z-score),[7],0.363
same,glycan array binding signal (z-score),[8],-0.074
same,glycan array binding signal (z-score),[9],0.843
same,glycan array binding signal (z-score),[10],0.717
same,glycan array binding signal (z-score),[11],-1.57
same,glycan array binding signal (z-score),[12],-0.485
same,glycan array binding signal (z-score),[13],0.214
same,glycan array binding signal (z-score),[14],-0.277
same,glycan array binding signal (z-score),[15],-0.856
same,glycan array binding signal (z-score),[16],2.92
same,glycan array binding signal (z-score),[17],-0.166
same,glycan array binding signal (z-score),[18],-0.535
same,glycan array binding signal (z-score),[19],0.118
same,glycan array binding signal (z-score),[20],0.715
same,glycan array binding signal (z-score),[21],1.12
same,glycan array binding signal (z-score),[22],-1.45
same,glycan array binding signal (z-score),[23],-0.406
